Patent US20180208664A1 (APOGENIX, published 2018)
Results are given in words; binding and its absence hold for the method and conditions named. Some binding calls cover weakened binding; strength is not graded here. Ends that are not written are not given here.

Sequences of proteins named here, by UniProt entry; tags and fusion partners are left off. Residues count along the entry.
UniProt P41047, residues 140-279: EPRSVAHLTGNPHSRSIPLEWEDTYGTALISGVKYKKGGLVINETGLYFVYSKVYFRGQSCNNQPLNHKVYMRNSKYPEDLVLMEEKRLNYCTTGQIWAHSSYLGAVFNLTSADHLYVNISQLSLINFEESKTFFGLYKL
UniProt P63308, residues 141-280: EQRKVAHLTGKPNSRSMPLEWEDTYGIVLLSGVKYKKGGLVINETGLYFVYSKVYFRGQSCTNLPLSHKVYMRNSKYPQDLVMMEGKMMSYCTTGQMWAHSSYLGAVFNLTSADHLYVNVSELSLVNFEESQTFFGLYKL
UniProt P48023: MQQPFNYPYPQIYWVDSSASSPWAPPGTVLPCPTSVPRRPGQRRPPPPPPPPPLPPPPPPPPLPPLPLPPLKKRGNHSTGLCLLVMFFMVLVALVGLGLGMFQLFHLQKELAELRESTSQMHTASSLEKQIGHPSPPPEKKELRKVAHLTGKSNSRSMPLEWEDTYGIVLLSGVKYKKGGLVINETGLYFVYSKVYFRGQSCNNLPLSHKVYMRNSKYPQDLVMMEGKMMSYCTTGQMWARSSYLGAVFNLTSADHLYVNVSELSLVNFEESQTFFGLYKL

Columns and labels:
[1] = biological target: mus musculus CD95L-T4 (mus musculus) (UniProt P41047); assay: ELISA, mus musculus CD95L-T4 coated
[2] = biological target: macaca fascicularis CD95L-T4 (macaca fascicularis) (UniProt P63308); assay: ELISA, macaca fascicularis CD95L-T4 coated
[3] = biological target: CD95L on the cell surface of KFL9 cells (UniProt P48023); assay: flow cytometry on KFL9 cells

Binder	binding [1]	binding [2]	binding [3]
rabbit monoclonal anti-CD95L antibody clone 119-4 (antibody, V domains shown, Rabbit monoclonal IgG from a hybridoma subclone, detected with anti-rabbit IgG; Only VH and VL are tied to the clone by name; also called mAb119-4) VH: QSLEESGGDLVKPGGTLTLTCTTSGFSFSDHYWMCWVRQAPGKGLEWIACIYTADSDSYYASWAKGRFTISKTSSTTVTLQMTSLTAADTATYFCARNGAYAGGPYGDLWGPGTLVTVSS VL: DIVMTQTPSSVEAAVGGTVTIKCQASQSIRTSLVWYQQKPGQPPKLLIYKASDLPSGVPSRFKGSGSGTQFTLTISDLECADAATYYCQSYDFRDTINNGHSFGGGTEVVVKG	binds	binds	
rabbit monoclonal anti-CD95L antibody clone 145-12 (antibody, V domains shown, Rabbit monoclonal IgG from a hybridoma subclone; Only VH and VL are tied to the clone by name; also called mAB145-12; mAb145-12) VH: QSLEESGGDLVKPGASLTLTCTASGFSFSSGYDMCWVRQAPGKGLEWIACIDTDNDATYYASWAKGRFTISKPSSTTVLLQITSLTAADTATYFCATTHGDYVAFKLWGPGTLVTVSS VL: QVLTQTASSVSAAVGGTVTINCQSSQSVYKNNDLSWYQQKPRQPPKLLIYQASKLASGVPSRFKGSGSGTQFTLTIGDLECDDGATYYCAGGYTASIYAFGGGTEVVVKG			binds
